The series deals with HT-29 colon carcinoma cells. Kind of series: Sub-cellular localization by fluorescent microscopy, HT-29. The series is classed as cell-based, human.

Each structure is given as a SMILES string.

As to `Cc1[nH]c2ccccc2c1-c1nc2c3cccnc3c3ncccc3c2[nH]1` [Compound 3], the “time to enter the cell” value (HT-29, 10 or 25 μM) is no more than 5 min. In addition, the sub-cellular localization entry is “evenly distributed throughout the nucleus and cytoplasm” (HT-29, 5 minutes of treatment); “localized predominantly around the outside of the nucleus (perinuclear region)” (HT-29, 4 hours of treatment).

These data come from US8148392B2, “2-indolyl imidazo [4,5-d] phenanthroline derivatives and their use in the treatment of cancer” (Lorus Therapeutics Inc., priority 2005, dated 2012).
